From paper PMC12121293
These are yes or no findings as the source states them, for the method shown. Binding seen in cells or lysates may run through a third protein. Some binding calls cover weakened binding; strength is not graded here. Where a sequence is shown, tags or fusion partners need not be part of it.

T1: Glucose transporter 3 (Glut3) (rat (endogenous in primary Sprague Dawley rat neurons)) (UniProt Q07647)
T1 sequence: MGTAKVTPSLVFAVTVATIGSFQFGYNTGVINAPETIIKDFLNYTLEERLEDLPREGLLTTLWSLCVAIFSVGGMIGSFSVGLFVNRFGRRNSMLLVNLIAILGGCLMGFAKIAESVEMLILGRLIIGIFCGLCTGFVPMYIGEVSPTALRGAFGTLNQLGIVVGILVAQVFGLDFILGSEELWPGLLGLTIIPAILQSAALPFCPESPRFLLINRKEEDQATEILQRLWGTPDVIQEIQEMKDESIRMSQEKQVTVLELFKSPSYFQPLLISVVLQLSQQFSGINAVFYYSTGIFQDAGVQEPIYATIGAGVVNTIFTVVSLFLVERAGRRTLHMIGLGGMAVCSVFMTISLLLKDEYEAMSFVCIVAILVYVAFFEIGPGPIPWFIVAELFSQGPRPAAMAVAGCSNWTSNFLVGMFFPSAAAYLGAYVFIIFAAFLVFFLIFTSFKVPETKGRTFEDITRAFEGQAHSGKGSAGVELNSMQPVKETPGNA


Biological target: T1, Glucose transporter 3 (Glut3) (rat (endogenous in primary Sprague Dawley rat neurons))
Assay: co-IP; total natural proteins of primary rat neurons (Ctrl, Mg2+-free for 3 h, LV NC and LV Rab11a OE groups exposed to Mg2+-free fluid); precipitated with anti-Glut3 antibody overnight at 4 °C; blotted with anti-Glut3 and anti-Rab11A

| Binder | binding |
| --- | --- |
| Rab11a (protein, UniProt P62494 1-216) MGTRDDEYDYLFKVVLIGDSGVGKSNLLSRFTRNEFNLESKSTIGVEFATRSIQVDGKTIKAQIWDTAGQERYRAITSAYYRGAVGALLVYDIAKHLTYENVERWLKELRDHADSNIVIMLVGNKSDLRHLRAVPTDEARAFAEKNGLSFIETSALDSTNVEAAFQTILTEIYRIVSQKQMSDRRENDMSPSNNVVPIHVPPTTENKPKVQCCQNI | binds |
| Rab11a overexpressed by lentivirus (OE group) (protein, UniProt P62494 1-216) MGTRDDEYDYLFKVVLIGDSGVGKSNLLSRFTRNEFNLESKSTIGVEFATRSIQVDGKTIKAQIWDTAGQERYRAITSAYYRGAVGALLVYDIAKHLTYENVERWLKELRDHADSNIVIMLVGNKSDLRHLRAVPTDEARAFAEKNGLSFIETSALDSTNVEAAFQTILTEIYRIVSQKQMSDRRENDMSPSNNVVPIHVPPTTENKPKVQCCQNI | binds |
